For one compound, MIC results are on record in patent US11401277B2, “Anti-bacterial heterocyclic compounds and their synthesis” (Bugworks Research, Inc., priority 2017, dated 2022).

SMILES strings stand for the structures. Converted amounts (≈) assume the structure as drawn. A value given as a limit tells only on which side of the number the result lay.

What all share (assay): MIC studies in LB Media
Holding throughout (assay type): cell-based

The test system of one assay is A. baumannii ATCC 19606. The conditions noted are these: Acinetobacter baumannii, ATCC19606, read-out: Minimum Inhibitory Concentration in LB Media, A. ba. As to the method: (§1) Bacterial cultures that were stored as glycerol stocks at −80° C. were sub cultured on LB agar plates to obtain isolated colonies. A single colony of each strain was cultured in LB broth. The cultures were incubated at 37° C., 200 rpm till they reach an optical density (OD at 600 nm) of 0.8 to 1. […] Test compounds were dissolved in dimethyl sulfoxide (DMSO) to a stock concentration of 4 mg/ml. A two-fold dilution series of this DMSO stock was prepared in a 96 well V bottom microtitre plate from rows A to H. A 3 μL volume of these dilutions were transferred to a 96-well flat bottom microtitre assay plate. Controls to monitor the effects of DMSO and media sterility were included. Each well was inoculated with 150 μL of the above diluted culture. The plates were incubated at 37° C. overnight in a humidified incubator. The following morning, the plates were read using a Spectrophotometer at 600 nm wavelength.

Assay [1] relates to Citrobacter freundii ATCC 43864. The conditions noted are these: ATCC43864, read-out: Minimum Inhibitory Concentration in LB Media, C. fr. As to the method:
as §1

For a further assay, the system named is E. coli ATCC 25922. Conditions: Escherichia coli, ATCC25922, read-out: Minimum Inhibitory Concentration in LB Media, E. co. On the procedure:
as §1

The next assay concerns E. faecalis ATCC 29212. The conditions noted are these: Enterococcus faecalis, ATCC29212, read-out: Minimum Inhibitory Concentration in LB Media, E. fa. As to the method:
as §1

Assay [2] concerns Morganella morganii ATCC 25830. Conditions: ATCC25830, read-out: Minimum Inhibitory Concentration in LB Media, M. mo. On the procedure:
as §1

In the next assay the test system is S. aureus ATCC 29213. Conditions: Staphylococcus aureus, ATCC29213, MIC = 90% inhibition of growth, read-out: Minimum Inhibitory Concentration in LB Media, S. au. On the procedure:
as §1

Turning to `O=C(O)c1cn(C2CC2)c2cc(N3CCNCC3)c(F)cc2c1=O` [Ciprofloxacin, ciprofloxacin, reference compound], the MIC in the assay on A. baumannii ATCC 19606 is 0.4 µg/mL (≈ 1.21 µM); in assay [1], not above 0.006 µg/mL; in the assay with E. coli ATCC 25922 it was 0.012 µg/mL (≈ 0.0362 µM); in the assay with E. faecalis ATCC 29212 it was 0.4 µg/mL (≈ 1.21 µM); in assay [2], not above 0.006 µg/mL; with S. aureus ATCC 29213 it was 0.4 µg/mL (≈ 1.21 µM).
